Data reported in patent publication US11174299B2, “Peptides and compositions for prevention of cell adhesion and methods of using same” (D[…]., priority 2008, dated 2021).

Assay: Amino acid analysis of peptide covalently immobilised on contact lenses
Conditions: average of 3 lenses

In the case of “SVHSFDYDWYNV (SEQ ID NO: 28) (immobilized on Etafilcon A contact lens) [APi1775]”, the “peptide immobilized on contact lens” value (lenses processed with 1.0 μM peptide) was 19.94 µg and the “peptide immobilized on contact lens” value (lenses processed with 10.0 μM peptide) was 23.16 µg.
